No constants are given. Whether binding was seen depends on the method and setting. Binding seen in cells or lysates may run through a third protein.
Target: Pyruvate kinase M2 (mouse (endogenous in BMDMs)) (UniProt P52480)
Test: co-IP; BMDMs stimulated with LPS for 1 or 2 hours, lysed in modified RIPA buffer; supernatant incubated with anti-PKM2, anti-Pyk2 or control IgG antibody, Protein A agarose beads, western blot

The chains behind the UniProt entries cited, without tags or fusion partners.
UniProt P52480: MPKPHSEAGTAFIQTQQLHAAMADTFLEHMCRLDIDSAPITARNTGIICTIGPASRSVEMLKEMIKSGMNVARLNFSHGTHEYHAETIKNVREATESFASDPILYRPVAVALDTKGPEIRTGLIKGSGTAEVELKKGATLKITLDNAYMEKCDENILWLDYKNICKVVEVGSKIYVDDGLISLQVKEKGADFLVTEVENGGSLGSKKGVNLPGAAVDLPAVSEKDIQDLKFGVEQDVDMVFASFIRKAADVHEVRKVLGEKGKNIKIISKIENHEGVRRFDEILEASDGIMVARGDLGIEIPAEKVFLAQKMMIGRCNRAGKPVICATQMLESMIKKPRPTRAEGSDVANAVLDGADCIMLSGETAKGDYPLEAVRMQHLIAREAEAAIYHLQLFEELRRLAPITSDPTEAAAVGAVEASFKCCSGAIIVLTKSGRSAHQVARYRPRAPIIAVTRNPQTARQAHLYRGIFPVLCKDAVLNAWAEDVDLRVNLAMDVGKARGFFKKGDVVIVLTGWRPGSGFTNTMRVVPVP
UniProt Q9QVP9: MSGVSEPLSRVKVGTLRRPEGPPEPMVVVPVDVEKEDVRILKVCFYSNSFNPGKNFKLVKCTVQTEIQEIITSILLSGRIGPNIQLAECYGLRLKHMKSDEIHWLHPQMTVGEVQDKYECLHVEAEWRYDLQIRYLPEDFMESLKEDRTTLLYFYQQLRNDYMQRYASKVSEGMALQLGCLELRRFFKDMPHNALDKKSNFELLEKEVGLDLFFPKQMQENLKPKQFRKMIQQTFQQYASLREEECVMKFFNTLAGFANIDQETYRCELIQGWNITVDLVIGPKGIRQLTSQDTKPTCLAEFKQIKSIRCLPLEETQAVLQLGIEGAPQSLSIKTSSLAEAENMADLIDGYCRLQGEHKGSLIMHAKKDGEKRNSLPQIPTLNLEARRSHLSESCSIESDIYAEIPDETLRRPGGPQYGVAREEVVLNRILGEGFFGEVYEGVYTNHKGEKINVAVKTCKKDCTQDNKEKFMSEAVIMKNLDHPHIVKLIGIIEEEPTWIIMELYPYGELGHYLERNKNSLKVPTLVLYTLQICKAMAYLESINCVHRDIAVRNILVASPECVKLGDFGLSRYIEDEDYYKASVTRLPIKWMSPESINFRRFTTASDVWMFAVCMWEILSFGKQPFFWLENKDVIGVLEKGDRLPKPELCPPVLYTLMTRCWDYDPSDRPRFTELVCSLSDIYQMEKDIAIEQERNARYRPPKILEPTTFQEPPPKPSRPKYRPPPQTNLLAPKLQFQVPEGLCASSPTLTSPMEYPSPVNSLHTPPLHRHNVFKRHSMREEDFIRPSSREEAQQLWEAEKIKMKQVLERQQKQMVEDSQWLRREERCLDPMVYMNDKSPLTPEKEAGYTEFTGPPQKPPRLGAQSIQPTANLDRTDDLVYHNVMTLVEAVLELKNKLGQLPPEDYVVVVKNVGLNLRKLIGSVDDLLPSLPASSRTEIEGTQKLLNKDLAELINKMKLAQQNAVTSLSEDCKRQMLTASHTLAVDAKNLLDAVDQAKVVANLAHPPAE

binding: no binding
Substance: proline-rich tyrosine kinase 2 (from UniProt Q9QVP9 1-1009) (enzyme)

From publication PMC8138060
